The source of these data is PubChem BioAssay AID493014 (National Center for Advancing Translational Sciences (NCATS), 2011).

This is one part of the list. Further columns of the screen follow, without active or inactive calls. Most of these compounds were active or inconclusive in the main read-out, so they are no random draw. Potencies come from curve fits of mixed quality, noted in brackets. Square brackets hold non-standard residues; d marks the D form. Peptide text beside a SMILES is read from it. * marks the point of attachment. Hyp = O=C(O)[CH]1C[CH](O)CN1; Cbz = O=C(OCc1ccccc1)*; OBn = c1ccc(CO*)cc1

This assay can be described thus: qHTS Assay to Find Inhibitors of Chronic Active B-Cell Receptor Signaling. Conditions: ABC-DLBCL IkBa-CBG/CBR reporter, luminescence ratio (green luciferase fused to IkBa over red control in TMD8 lymphoma cells), 4 h. The method in brief:
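TMD8 human ABC-DLBCL cells with doxycycline-inducible IκBα–green luciferase fusion and unfused red luciferase, in 0.5% FBS medium; compounds up to 46 uM, 4 h at 37C. Green/red luminescence ratio, filter-overlap corrected, fitted to concentration-response curves.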
For orientation: In qHTS, concentration-response curves come from the screen itself.

Where [1] appears, read: measured here: CBR red luminescence, cell number.
Where [2] appears, read: measured here: IkBa-CBG green luminescence.

Usually AC50 stands for the concentration giving half of the maximal activity seen. `COc1cccc(-c2[nH]nc3c2C(c2ccsc2)C(C#N)=C(N)O3)c1` (stereo unspecified): the AC50 under setting [1] was 0.708 µM [falling, full curve, poor fit]. With `Cn1ccnc1C(=O)c1ccc(NN)c([N+](=O)[O-])c1`, under setting [1], the AC50 is 12.6 µM [falling, partial curve].

Regarding `CCOc1cccc(C2C(C(=O)c3ccco3)=C(O)C(=O)N2c2nnc(C)s2)c1` (stereo unspecified), the AC50 under setting [1] was 1.46 µM [rising, partial curve, poor fit]. `Cc1c(C(=O)N(CCc2ccccc2)Cc2ccccc2)cccc1[N+](=O)[O-]`: the AC50 under setting [1] is 15.8 µM [falling, single point].

With `O=C(CN1C(=O)c2ccccc2C1=O)OCc1nc2ccsc2c(=O)[nH]1`, under setting [1], the AC50 is 1.03 µM [rising, partial curve, poor fit].

`Cc1cc(=O)[nH]c(SCC(=O)N2c3ccccc3CC2C)n1` (stereo unspecified): under setting [1], the AC50 was 32.6 µM [rising, single point].

As to `CSc1nsc(SCC(=O)Nc2ccccc2C(=O)O)n1`, the AC50 under setting [1] is 10 µM [falling, partial curve]. Turning to `COc1ccc(C)cc1Nc1cc(C)nc2ncnn12`, the AC50 under setting [1] was 18.4 µM [rising, partial curve] and the half-maximal activity concentration (AC50) under setting [2] is 18.4 µM [falling, partial curve, poor fit].

Consider `c1ccc(-n2nnnc2SCc2cccc3nsnc23)cc1`, for which the AC50 under setting [1] was 5.62 µM [falling, single point]. The same measure, in the same setting: then `Cc1ccc(C(=O)/C=C/Nc2cccc([N+](=O)[O-])c2)o1`, with 29.1 µM [falling, single point]. For `Cc1cccc(C(=O)Oc2ccc(/C=N/NC(=O)c3cc(O)cc(O)c3)cc2)c1`, under setting [1], the AC50 was 4.47 µM [falling, partial curve, poor fit]. For the molecule `COc1c2c(nc3ccccc13)OC(C(C)(O)COC(C)=O)C2` (stereo unspecified), the concentration at half-maximal activity (AC50) under setting [1] was 2.31 µM [rising, single point]. For `Cc1c(CCO)c(=O)[nH]n1S(=O)(=O)c1ccc(Cl)cc1Cl`, the half-maximal activity concentration (AC50) under setting [1] was 1 µM [rising, full curve].

As to `O=C(Nc1ccc2c(c1)OCCO2)c1ccccc1F`, under setting [1], the half-maximal activity concentration (AC50) was 11.2 µM [falling, partial curve]. With `O=C(COC(=O)CN1C(=O)c2ccccc2C1=O)NC1CCCCC1`, under setting [1], the AC50 was 5.01 µM [rising, full curve, poor fit]. The same measure, in the same setting: the figure for `COc1ccc2oc(C(=O)NCCN3CCOCC3)c(C)c2c1OC` is 11.2 µM [falling, partial curve]; for `CC1(C)CC(=O)C(CC(=O)NC(=O)NCc2ccccc2)=C(O)C1` it is 32.6 µM [rising, single point]; for `O=C(NCC(=O)N1CC(O)CC1C(=O)N1CC(O)CC1C(=O)OCc1ccccc1)OCc1ccccc1` (stereo not drawn) (Cbz-Gly-[Hyp]-[Hyp]-OBn; configuration not given here) it is 6.31 µM [falling, partial curve, poor fit]. On the same count and under the same terms, the figure for `CCOc1cc(C(=O)NC(CC(=O)O)c2ccc(OC3CCCC3)cc2)cc(OCC)c1OCC` (stereo unspecified) is 15.8 µM [falling, single point]; for `COc1ccc(Nc2oc(-c3ccc(F)cc3)nc2C#N)cc1` it is 0.891 µM [rising, full curve].

With `CC(C)(C)OC(=O)NNC(=O)Nc1ccccc1C(F)(F)F`, under setting [1], the AC50 was 12.6 µM [rising, partial curve, poor fit].

Turning to `Cc1cc(=O)oc2cc(OCCc3ccccc3)ccc12`, the AC50 under setting [1] is 35.5 µM [falling, partial curve, poor fit]. Still for that read-out and setting: then `Cc1ccc(CN2CCN(/N=C/c3cc([N+](=O)[O-])ccc3Cl)CC2)cc1`, with 4.11 µM [rising, single point]; and `Cc1nc(SC(C)C(=O)NC2CCCC2)c2ccccc2n1` (stereo unspecified), with 29.1 µM [falling, single point]; and `CC(C)[C@H](NC(=O)N1CCn2c1nc1ccccc12)C(=O)NCc1ccc2c(c1)OCO2`, with 35.5 µM [falling, single point]. `CC(=O)c1c(C)[nH]c(C(=O)CSc2ccc(F)cc2)c1C`: the AC50 under setting [1] was 2.51 µM [rising, full curve, poor fit].

On to `O=C(Nc1nccs1)c1sc2ccccc2c1Cl`, for which, under setting [1], the concentration at half-maximal activity (AC50) was 13 µM [falling, partial curve].

For `COc1ccc(C(c2sc3nc(C)nn3c2O)N2CCN(Cc3ccccc3)CC2)cc1OC` (stereo unspecified), the AC50 under setting [1] is 5.17 µM [falling, partial curve, poor fit]. For the molecule `COc1ccc(NS(=O)(=O)c2cccc(C(=O)NNC(=O)c3ccccc3O)c2)cc1`, the AC50 under setting [1] is 29.1 µM [falling, single point]. On to `CC(=O)Nc1ccc(S(=O)(=O)N(C)CC(=O)Nc2nc3ccccc3[nH]2)cc1`, for which the AC50 under setting [1] was 20.6 µM [falling, single point]. For `COCCNC(=S)N/N=C(\C)c1ccc(OC)cc1`, the AC50 under setting [1] is 32.6 µM [falling, single point] and the AC50 under setting [2] is 29.1 µM [falling, single point]. As to `CCc1cc(C(=O)NNC(=S)NC(C)c2ccccc2)cs1` (stereo unspecified), the AC50 under setting [1] was 29.1 µM [falling, single point].

As to `COc1cc2c(cc1NC(=O)Nc1ccccc1)oc1ccccc12`, the AC50 under setting [1] was 35.5 µM [falling, single point]. On the same count and under the same terms, the figure for `N#CCc1nc(C(c2ccccc2)c2ccccc2)no1` is 10 µM [falling, partial curve, poor fit]. Consider `CC(c1n[nH]c(=S)n1-c1ccccc1)N1CCCCC1` (stereo unspecified), for which, under setting [1], the AC50 was 7.94 µM [rising, partial curve, poor fit]. On the same count and under the same terms, then `COc1cccc(OC)c1C(=O)Nc1cccc(C(=O)Nc2cccc(C(=O)O)c2)c1`, with 11.2 µM [falling, partial curve]; and `CCN1C(=O)c2cccc3c(S(=O)(=O)Nc4ccccc4OC)ccc1c23`, with 35.5 µM [rising, single point].

On to `S=C(NCc1ccco1)Nc1cc(Cl)c(Cl)cc1Cl`, for which the AC50 under setting [1] was 16.4 µM [falling, partial curve].

Consider `Cc1ccc(-c2csc3nc(C)n(-n4c(C)ccc4C)c(=O)c23)o1`, for which the AC50 under setting [1] was 2.82 µM [rising, full curve]. The same measure, in the same setting: the figure for `Cc1cc(-c2nnc(SCC(=O)Nc3nc(-c4ccccc4)cs3)o2)no1` is 0.501 µM [rising, full curve, poor fit]. The same measure, in the same setting: the figure for `COc1cc(C(=O)NCC(=O)N/N=C\C(C)=C/c2ccccc2)cc(OC)c1OC` is 0.398 µM [rising, full curve, poor fit]; for `CC1(C)CC(=O)C=C(NNC(=O)c2cccnc2)C1` it is 14.1 µM [falling, single point]. Same read-out and setting: then `CC(NCC(O)COc1ccc(S(=O)(=O)N2CCOCC2)cc1)c1ccccc1` (stereo unspecified), with 14.1 µM [falling, single point].

For the molecule `COc1cccc(C(=O)Nc2nc(SCc3ccc(Cl)cc3)n[nH]2)c1`, the AC50 under setting [2] was 35.5 µM [falling, single point]. `CC1=C(C(=O)Nc2cccnc2)C(c2ccc3c(c2)OCO3)C2=C(CCCC2=O)N1` (stereo unspecified): under setting [1], the AC50 is 9.2 µM [rising, partial curve, poor fit]. Consider `COc1cccc(NC(=S)NNC(=O)Cn2nc([N+](=O)[O-])cc2C)c1`, for which the concentration at half-maximal activity (AC50) under setting [1] is 10 µM [rising, partial curve]. Consider `COc1ccc2c(CC(=O)NNC(=O)c3ccc(O)cc3)coc2c1`, for which, under setting [1], the AC50 was 1.84 µM [falling, single point]. Same read-out and setting: the figure for `COCC1CCCN(Cc2nc(Cc3ccccc3)no2)C1` (stereo unspecified) is 35.5 µM [rising, single point]; for `CCOC(=O)C1=C(c2ccccc2)N(C)C(=O)NC1c1ccc(O)c(OC)c1` (stereo unspecified) it is 7.94 µM [rising, partial curve, poor fit]. Same read-out and setting: then `COc1ccc(-[n+]2c(C)cc(/C=C3\Sc4ccccc4N3C)cc2C)cc1`, with 12.6 µM [falling, partial curve, poor fit]. Same read-out and setting: then `CC1CC(C)(C)NC(=S)N1CCCC(=O)Nc1ccc2c(c1)OCCO2` (stereo unspecified), with 20 µM [falling, partial curve]; and `O=[N+]([O-])c1ccc(C(O)CNC(=S)Nc2ccccc2)cc1` (stereo unspecified), with 14.1 µM [rising, single point]. Consider `COCCCn1c(=S)[nH]c2c(sc3ccccc32)c1=O`, for which the AC50 under setting [1] is 2.24 µM [falling, full curve]. Still for that read-out and setting: the figure for `CC(=O)O[C@]1(C(C)=O)CC[C@H]2[C@@H]3C=C(C)C4=CC(=O)CC[C@]4(C)[C@H]3CC[C@@]21C` is 1.26 µM [rising, full curve]; for `CC(C)C(=O)N1CCC(c2nc(-c3ccc(S(=O)(=O)N4CCN(C)CC4)cc3)no2)CC1` it is 2 µM [rising, full curve, poor fit]. On to `O=C(CNC(=S)NC(=O)c1ccco1)c1ccccc1`, for which the AC50 under setting [1] was 8.91 µM [falling, partial curve, poor fit]. Same read-out and setting: then `CCOC(=O)C1=C(CN2CCOCC2)NC(=O)NC1c1cc(C)ccc1C` (stereo unspecified), with 23.1 µM [falling, single point]. Still for that read-out and setting: the figure for `COc1ccc(OC)c(NC(=O)Nc2ccccc2C)c1` is 9.2 µM [falling, single point]; for `COC(=O)/C=C/c1cnc2ccccc2c1` it is 7.08 µM [falling, partial curve, poor fit]; for `Cc1ccc(NC(=O)/C(Cl)=C/c2ccccc2)cc1C` it is 9.2 µM [falling, partial curve].

`Cc1cc(Cl)c2c(c1)[C@]1(C(=O)N2)[C@@H]2C(=O)N(Cc3ccccc3)C(=O)[C@@H]2[C@@H]2CCCN21`: the AC50 under setting [1] was 35.5 µM [falling, single point]. Consider `O=C(c1cnccn1)N(Cc1ccco1)C1(C(=O)NC2CCCCC2)CCCCC1`, for which the AC50 under setting [1] was 29.1 µM [falling, single point]. Take `Cn1nnnc1SCC(=O)NCc1cc([N+](=O)[O-])ccc1O`: the AC50 under setting [1] is 6.31 µM [rising, full curve, poor fit]. As for `COc1ccccc1NC(=O)c1ccc(COc2ccc3c(c2)CCC3)cc1`, the AC50 under setting [1] is 6.51 µM [falling, partial curve].
